Data as given in PubChem BioAssay AID504804 (Drosophila RNAi Screening Center, 2011).

Purpose: 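dsRNAs that improve Kc cell survival under doxorubicin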 (primary screen)
System: Drosophila Kc cells
Reagent: long dsRNA against Drosophila genes, 0.5 µg dsRNA per well
Duration: 96 h (48 h knock-down, then 48 h drug)
Treatment: doxorubicin 5 µg/ml for 48 h, added 48 h after dsRNA
Measured: 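Luminescent ATP counts per replicate, not normalised, reflecting viable cells after 48 h dsRNA knock-down followed by 48 h of 5 µg/ml doxorubicin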
Scale: raw ATP luminescence: higher = more viable cells, protection from doxorubicin
Active means: 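z-score of 2 or more over plate mean in both duplicates, retained only when retests and separate dsRNAs confirm the protection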
The screen tested about 19,000 reagents; shown is a random part of those with a known target gene and a result. Over the whole deposit, 47 (0.25%) were called active. 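Signals are raw, not normalised; exact z-scores behind calls not deposited; actives needed confirmation, so some wells reaching 2 SD are inactive.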 No sequences are given here.

no.	target gene	DRSC id	raw ATP luminescence, replicate 1	raw ATP luminescence, replicate 2	Outcome
1	CR42548	DRSC09514	77873	91943	inactive
2	CG18417	DRSC10319	1.09e5	89170	inactive
3	Spps	DRSC15856	36253	39133	inactive
4	da	DRSC03517	44660	85943	inactive
5	CG12661	DRSC17864	33500	37470	inactive
6	CG14985	DRSC08078	1.90e5	1.52e5	inactive
7	Miga	DRSC17821	30820	35830	inactive
8	Polr1B	DRSC00780	1.11e5	78773	inactive
9	Pitslre	DRSC11874	20500	31250	inactive
10	CG1888	DRSC06797	44853	76573	inactive
11	CG10654	DRSC09767	69817	61367	inactive
12	CG9386	DRSC16485	51447	48860	inactive
13	Lhr	DRSC06759	52327	65277	inactive
14	Pms2	DRSC07511	60263	46070	inactive
15	tef	DRSC07301	58873	77957	inactive
16	Mal-A5	DRSC07232	72570	66047	inactive
17	CG14190	DRSC19545	3.57e5	3.11e5	inactive
18	fray	DRSC16950	58440	54450	inactive

Next part; the last 3 above are carried over.
no.	target gene	DRSC id	raw ATP luminescence, replicate 1	raw ATP luminescence, replicate 2	Outcome
16	Mal-A5	DRSC07232	72570	66047	inactive
17	CG14190	DRSC19545	3.57e5	3.11e5	inactive
18	fray	DRSC16950	58440	54450	inactive
19	yki	DRSC04437	61277	56240	inactive
20	CG2931	DRSC12324	62103	69303	inactive
21	fs(1)h	DRSC18778	2.14e5	2.71e5	inactive
22	CG31952	DRSC00428	33547	37167	inactive
23	Tssk	DRSC14784	64650	59230	inactive
24	az2	DRSC07580	57833	69093	inactive
25	Cipc	DRSC14900	59410	68150	inactive
26	CG9550	DRSC03262	21233	26077	inactive
27	CG6415	DRSC02954	71307	48613	inactive
28	CG13994	DRSC02326	26093	40443	inactive
29	CG2267	DRSC15435	40870	35710	inactive
30	zuc	DRSC02160	1.12e5	69583	inactive
31	TER94	DRSC07560	53433	37213	inactive
32	CG5114	DRSC10482	25610	24037	inactive
33	CG10669	DRSC14261	52420	52150	inactive
34	Ilk	DRSC11868	1.83e5	1.86e5	inactive
